# Assay results taken from the supplement of paper PMC10849652.
# Chains of the proteins cited; added tags and fusions are not shown. Lines headed by an entry give the natural chain unless they say otherwise; changes in a name come on top.
# UniProt Q9UGJ1, whole entry, looked up: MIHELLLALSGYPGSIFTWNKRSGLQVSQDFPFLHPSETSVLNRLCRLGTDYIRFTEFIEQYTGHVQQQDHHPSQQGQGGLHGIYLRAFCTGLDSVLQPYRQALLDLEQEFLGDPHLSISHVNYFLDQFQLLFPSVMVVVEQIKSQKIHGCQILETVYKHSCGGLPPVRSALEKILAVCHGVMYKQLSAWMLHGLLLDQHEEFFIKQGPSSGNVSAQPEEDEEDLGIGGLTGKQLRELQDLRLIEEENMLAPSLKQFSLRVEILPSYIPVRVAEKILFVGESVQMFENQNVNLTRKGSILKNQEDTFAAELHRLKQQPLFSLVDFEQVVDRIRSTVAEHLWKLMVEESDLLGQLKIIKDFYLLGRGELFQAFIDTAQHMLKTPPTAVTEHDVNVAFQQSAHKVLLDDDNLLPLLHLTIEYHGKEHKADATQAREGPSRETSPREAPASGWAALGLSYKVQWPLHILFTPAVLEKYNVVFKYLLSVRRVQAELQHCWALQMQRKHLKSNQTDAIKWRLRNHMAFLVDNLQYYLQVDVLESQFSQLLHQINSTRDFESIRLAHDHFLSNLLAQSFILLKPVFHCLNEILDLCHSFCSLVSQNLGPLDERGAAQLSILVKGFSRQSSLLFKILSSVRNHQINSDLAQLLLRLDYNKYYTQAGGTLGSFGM
# UniProt Q12999: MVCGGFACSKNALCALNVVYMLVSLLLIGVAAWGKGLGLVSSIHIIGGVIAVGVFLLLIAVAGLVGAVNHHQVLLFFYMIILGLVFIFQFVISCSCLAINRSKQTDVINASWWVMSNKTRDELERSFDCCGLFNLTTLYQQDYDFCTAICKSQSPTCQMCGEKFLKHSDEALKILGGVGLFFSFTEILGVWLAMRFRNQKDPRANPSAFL
# UniProt Q9H0U9: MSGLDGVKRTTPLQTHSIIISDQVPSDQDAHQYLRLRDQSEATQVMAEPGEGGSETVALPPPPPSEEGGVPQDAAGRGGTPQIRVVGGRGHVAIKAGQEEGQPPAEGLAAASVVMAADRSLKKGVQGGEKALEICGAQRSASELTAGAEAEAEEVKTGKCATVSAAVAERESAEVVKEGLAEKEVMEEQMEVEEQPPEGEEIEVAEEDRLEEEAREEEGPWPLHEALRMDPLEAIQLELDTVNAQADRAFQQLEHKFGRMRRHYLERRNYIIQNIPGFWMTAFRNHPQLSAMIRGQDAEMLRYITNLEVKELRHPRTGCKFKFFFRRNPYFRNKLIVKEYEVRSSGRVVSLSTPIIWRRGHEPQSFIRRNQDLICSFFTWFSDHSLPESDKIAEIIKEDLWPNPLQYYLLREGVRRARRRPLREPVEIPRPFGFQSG
# UniProt Q16881, whole entry, looked up: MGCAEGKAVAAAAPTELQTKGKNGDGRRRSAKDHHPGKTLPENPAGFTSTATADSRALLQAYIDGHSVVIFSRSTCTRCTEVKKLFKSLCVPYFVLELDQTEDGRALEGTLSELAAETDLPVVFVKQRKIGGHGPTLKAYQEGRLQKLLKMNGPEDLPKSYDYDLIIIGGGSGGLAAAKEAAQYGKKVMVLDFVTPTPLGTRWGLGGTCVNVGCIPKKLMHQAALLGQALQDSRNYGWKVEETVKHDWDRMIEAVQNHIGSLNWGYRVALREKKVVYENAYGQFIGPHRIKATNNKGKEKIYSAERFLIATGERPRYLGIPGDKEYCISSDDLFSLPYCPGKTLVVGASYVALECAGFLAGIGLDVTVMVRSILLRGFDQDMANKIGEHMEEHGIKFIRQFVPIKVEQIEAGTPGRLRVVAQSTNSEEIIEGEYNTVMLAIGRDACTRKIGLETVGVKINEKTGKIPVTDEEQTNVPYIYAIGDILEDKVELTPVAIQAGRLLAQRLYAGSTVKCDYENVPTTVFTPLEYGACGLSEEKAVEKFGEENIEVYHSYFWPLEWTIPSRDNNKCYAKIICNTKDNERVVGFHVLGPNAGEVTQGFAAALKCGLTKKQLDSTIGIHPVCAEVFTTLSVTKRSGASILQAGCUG
# UniProt Q9NZ09: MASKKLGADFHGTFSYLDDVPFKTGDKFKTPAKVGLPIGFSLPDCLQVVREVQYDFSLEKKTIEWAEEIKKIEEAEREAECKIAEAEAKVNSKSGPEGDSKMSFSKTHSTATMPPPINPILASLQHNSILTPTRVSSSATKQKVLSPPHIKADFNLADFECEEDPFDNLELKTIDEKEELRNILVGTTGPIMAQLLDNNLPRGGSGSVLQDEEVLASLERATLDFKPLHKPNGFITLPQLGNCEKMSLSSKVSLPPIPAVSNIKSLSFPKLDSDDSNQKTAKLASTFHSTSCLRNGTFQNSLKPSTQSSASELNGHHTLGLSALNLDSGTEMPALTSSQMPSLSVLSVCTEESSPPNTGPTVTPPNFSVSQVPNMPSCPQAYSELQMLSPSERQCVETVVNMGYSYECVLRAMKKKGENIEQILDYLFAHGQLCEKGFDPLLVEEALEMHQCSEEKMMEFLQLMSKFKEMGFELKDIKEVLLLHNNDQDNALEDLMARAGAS
# UniProt Q01081: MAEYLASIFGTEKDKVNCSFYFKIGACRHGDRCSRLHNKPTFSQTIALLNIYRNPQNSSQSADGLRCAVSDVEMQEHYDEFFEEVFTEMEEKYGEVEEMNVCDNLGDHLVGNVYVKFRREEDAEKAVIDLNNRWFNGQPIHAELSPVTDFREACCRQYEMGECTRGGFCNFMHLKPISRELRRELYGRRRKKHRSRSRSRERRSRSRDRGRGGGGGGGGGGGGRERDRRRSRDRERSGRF
# UniProt P51668: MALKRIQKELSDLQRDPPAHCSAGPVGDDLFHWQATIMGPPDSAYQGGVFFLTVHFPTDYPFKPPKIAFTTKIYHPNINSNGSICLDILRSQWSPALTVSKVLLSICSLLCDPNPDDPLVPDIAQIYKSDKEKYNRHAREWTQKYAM
# UniProt P60604: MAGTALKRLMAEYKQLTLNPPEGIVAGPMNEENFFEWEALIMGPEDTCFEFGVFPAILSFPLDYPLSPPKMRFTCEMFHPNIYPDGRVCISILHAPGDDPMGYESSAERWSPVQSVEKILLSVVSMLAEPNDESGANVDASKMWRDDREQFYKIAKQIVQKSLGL
# UniProt Q9P2K2: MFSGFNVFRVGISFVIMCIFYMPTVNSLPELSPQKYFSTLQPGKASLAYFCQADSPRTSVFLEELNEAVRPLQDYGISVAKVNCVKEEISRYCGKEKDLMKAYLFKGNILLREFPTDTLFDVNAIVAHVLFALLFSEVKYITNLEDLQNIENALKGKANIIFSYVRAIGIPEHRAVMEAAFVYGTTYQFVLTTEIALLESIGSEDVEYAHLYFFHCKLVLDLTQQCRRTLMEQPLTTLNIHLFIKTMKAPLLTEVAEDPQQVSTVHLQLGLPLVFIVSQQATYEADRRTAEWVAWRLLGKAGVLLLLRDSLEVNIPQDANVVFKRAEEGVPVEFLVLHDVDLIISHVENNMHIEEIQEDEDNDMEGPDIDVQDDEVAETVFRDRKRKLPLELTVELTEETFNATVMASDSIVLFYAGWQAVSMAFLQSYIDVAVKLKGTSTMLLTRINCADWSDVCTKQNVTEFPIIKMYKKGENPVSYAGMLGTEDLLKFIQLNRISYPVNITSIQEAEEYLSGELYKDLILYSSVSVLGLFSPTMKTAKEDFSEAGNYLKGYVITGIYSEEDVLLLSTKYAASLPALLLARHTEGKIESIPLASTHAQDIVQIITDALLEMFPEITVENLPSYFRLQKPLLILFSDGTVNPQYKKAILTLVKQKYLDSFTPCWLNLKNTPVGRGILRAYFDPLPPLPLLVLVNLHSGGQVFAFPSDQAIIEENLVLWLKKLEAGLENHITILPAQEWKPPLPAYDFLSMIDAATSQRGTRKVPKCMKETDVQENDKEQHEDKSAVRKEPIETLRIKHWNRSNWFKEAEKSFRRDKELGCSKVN
# UniProt Q6PID6, whole entry, looked up: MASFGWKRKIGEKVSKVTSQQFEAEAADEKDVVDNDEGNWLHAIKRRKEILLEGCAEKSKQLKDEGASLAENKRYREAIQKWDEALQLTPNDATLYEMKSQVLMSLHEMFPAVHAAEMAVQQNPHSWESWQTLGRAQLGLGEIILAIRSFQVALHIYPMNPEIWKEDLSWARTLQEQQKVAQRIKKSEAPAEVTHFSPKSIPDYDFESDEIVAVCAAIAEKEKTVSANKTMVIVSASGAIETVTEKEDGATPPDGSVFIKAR
# The other results are listed elsewhere or left out. Residues, ends and D or L forms follow the SMILES beside them. *: point of attachment. Cbz = O=C(OCc1ccccc1)*
# Key:
# Assay in all cases: log2 fold change, soluble protein after heating vs DMSO (PISA); higher = thermal stabilisation; K562 cells, 10 uM, 30 min; active = over 0.2 and 3.5 SD of the protein, either way, in both replicates (recomputed)
# [1] = compound: C#Cc1cccc(Nc2ncnc3cc(OCCOC)c(OCCOC)cc23)c1 [erlotinib]
# In short: (§1)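 Aliquots of K562 cells (2×10^6 cells/mL) treated with 10 μM compound for 30 min were heated for 3 min over 48°C-58°C. After pooling and extraction in PBS with 0.5% NP-40 at 4°C, soluble protein from a 21,000xg, 90 min spin was quantified by TMTpro 16plex LC-MS/MS with channel sums equalised. Thermal stability is expressed against control samples, from duplicates, as a log2 fold change.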
# [2] = compound: C/C(=N\NC(=O)C1=CC(=CC=C1)S(=O)(=O)N2CCOCC2)/C3=C(C=CC(=C3)Cl)O
# In short: as §1
# [3] = compound: C1=CC(=CC=C1C2=NC3=C(N2)C=C(C=C3)C(=O)N)OC4=CC=C(C=C4)Cl
# In short: as §1
# [4] = compound: C1=CC2=C(C=CC(=C2)/C=C\3/C(=O)NC(=NCC4=CC=CS4)S3)N=C1
# In short: as §1
# [5] = compound: C1=CC2=NC=CN=C2C=C1/C=C/3\C(=O)NC(=O)S3
# In short: as §1
# [6] = compound: C1=CC=C(C=C1)C2=NC(=C(N2)C3=CC=NC=C3)C4=CC(=C(C=C4)Cl)O
# In short: as §1
# [7] = compound: C1=CC=C2C(=C1)C3=NNC4=CC=CC(=C43)C2=O
# In short: as §1
# [8] = compound: C1CCN(C1)C(=O)NC2=CC=CC(=C2)NC3=NC=C(C(=N3)NCCC4=CN=CN4)Br
# In short: as §1
# [9] = compound: C1CN(CCC1(CC2=CC=C(C=C2)Cl)N)C3=NC=NC4=C3C=CN4
# In short: as §1
# [10] = compound: C1COCCN1CCN2C3=CC=CC=C3N=C2NC(=O)C4=CC(=CC=C4)[N+](=O)[O-] [IRAK-1-4 Inhibitor I]
# In short: as §1
# [11] = compound: C=CC(=O)N1CCC[C@@H](n2nc(-c3ccc(Oc4ccccc4)cc3)c3c(N)ncnc32)C1 [ibrutinib]
# In short: as §1
# [12] = compound: CC(=O)c1cnc2ccc(-c3cc(Cl)c(O)c(Cl)c3)nc2c1N[C@H]1CC[C@H](CN(C)C)CC1
# In short: as §1
# [13] = compound: CC(C)(C)Cn1c(N)nc2ccc(-c3[nH]c(C(C)(C)C)nc3-c3ccc(F)cc3)nc21 [ralimetinib]
# In short: as §1
# [14] = compound: CC(C)C1=C2N=C(C=C(N2N=C1)NCC3=CC=CC=C3)NCCCCCCN
# In short: as §1
# [15] = compound: CC(C)C[C@@H](C=O)NC(=O)[C@H](CC(C)C)NC(=O)[C@H](CC(C)C)NC(=O)OCc1ccccc1
# In short: as §1
# [16] = compound: CC(C)N(C[C@H]1O[C@@H](n2cnc3c(N)ncnc32)[C@H](O)[C@@H]1O)[C@H]1C[C@@H](CCc2nc3cc(C(C)(C)C)ccc3[nH]2)C1 [pinometostat]
# In short: as §1
# [17] = compound: CC1=C(C2=C(C=C1)C(=O)C3=CC=CC=C3N2CCCN)C
# In short: as §1
# [18] = compound: C1=CC(=C(C=C1Cl)C2=NC3=NC=CN=C3C(=N2)NC4=CC=NC=C4)F
# In short: as §1
# [19] = compound: CC(C)(O)CC(=O)NCCn1ccc2ncnc(Nc3ccc(Oc4cccc(C(F)(F)F)c4)c(Cl)c3)c21
# In short: as §1
# [20] = compound: CC1=C(C(CC(=O)N1)C2=CC=C(C=C2)C(F)(F)F)C(=O)NC3=C(C=C4C(=C3)C=NN4)F
# In short: as §1
Target,log2 fold change [1],log2 fold change [2],log2 fold change [3],log2 fold change [4],log2 fold change [5],log2 fold change [6],log2 fold change [7],log2 fold change [8],log2 fold change [9],log2 fold change [10],log2 fold change [11],log2 fold change [12],log2 fold change [13],log2 fold change [14],log2 fold change [15],log2 fold change [16],log2 fold change [17],log2 fold change [18],log2 fold change [19],log2 fold change [20]
TUBGCP4 (UniProt Q9UGJ1),inactive: 0.114,inactive: -0.119,inactive: -0.085,inactive: -0.04,inactive: 0.139,inactive: 0.07,inactive: 0.058,inactive: -0.065,inactive: -0.067,inactive: -0.194,inactive: 0.332,inactive: 0.109,inactive: 0.194,inactive: -0.101,inactive: -0.005,inactive: 0.326,inactive: -0.005,,,
TSPAN31 (UniProt Q12999),inactive: -0.055,inactive: -0.095,inactive: 0.084,inactive: 0.04,,,inactive: -0.049,inactive: 0.03,inactive: 0.027,inactive: 0.023,,inactive: -0.047,,inactive: 0.364,,inactive: 0.047,inactive: -0.071,inactive: 0.11,inactive: 0.064,inactive: -0.022
TSPYL1 (UniProt Q9H0U9),inactive: -0.158,inactive: -0.141,inactive: 0.032,inactive: -0.068,,,inactive: 0.079,,,,,inactive: 0.041,,inactive: 0.073,,,,,,inactive: -0.1
TUBB4A (UniProt M0QYM7),inactive: -0.021,inactive: -0.21,inactive: -0.108,inactive: 0.345,inactive: 0.048,,inactive: -0.134,inactive: 0.424,inactive: -0.241,inactive: -0.035,inactive: -0.111,inactive: -0.282,,inactive: 0.042,,inactive: 0.073,inactive: 0.018,inactive: -0.124,inactive: 0.189,inactive: -0.048
TXNRD1 (UniProt Q16881),inactive: 0.021,inactive: 0.049,inactive: -0.006,inactive: 0.009,inactive: 0.074,inactive: 0.027,inactive: 0.019,inactive: 0.005,inactive: 0.046,inactive: 0.064,inactive: -0.035,inactive: -0.062,inactive: -0.088,inactive: -0.013,inactive: -0.03,inactive: -0.042,inactive: 0.077,inactive: 0.057,inactive: -0.049,
UBAP1 isoform 4 (UniProt Q9NZ09),inactive: 0.001,inactive: 0.127,inactive: 0.049,inactive: 0.025,inactive: 0.027,inactive: -0.02,inactive: 0.024,inactive: 0.058,inactive: -0.093,inactive: -0.058,inactive: 0.07,inactive: -0.001,inactive: -0.024,inactive: -0.087,inactive: 0.107,inactive: 0.018,inactive: -0.112,inactive: 0.013,inactive: -0.044,
U2AF1 isoform 2 (UniProt Q01081),inactive: 0.015,inactive: 0.119,inactive: -0.036,inactive: -0.038,inactive: 0.015,inactive: 0.036,inactive: -0.036,inactive: -0.071,inactive: -0.071,inactive: -0.133,inactive: 0.073,active: -0.519,inactive: 0,inactive: -0.083,inactive: 0.022,inactive: -0.04,inactive: 0.169,inactive: -0.02,inactive: 0.042,
UBE2D1 (UniProt P51668),inactive: 0.098,inactive: 0.071,inactive: 0.068,inactive: 0.057,inactive: 0.023,inactive: 0.01,inactive: -0.096,inactive: 0.022,inactive: -0.162,,inactive: 0.007,inactive: 0.005,inactive: 0.003,inactive: -0.203,inactive: -0.058,,inactive: 0.117,,,
TTR (UniProt P02766),inactive: 0.134,inactive: 0.007,inactive: -0.455,inactive: 0.644,,,inactive: -0.401,,,,,inactive: 0.068,,inactive: 0.116,,,,,,
UBE2G2 (UniProt P60604),inactive: -0.148,inactive: 0.168,inactive: 0.173,inactive: -0.105,inactive: 0.038,inactive: 0.205,inactive: 0.099,inactive: -0.111,inactive: -0.208,inactive: 0.04,inactive: 0.059,inactive: 0.027,inactive: 0.002,inactive: -0.492,inactive: -0.004,inactive: 0.035,inactive: 0.405,,,inactive: -0.083
TXNDC16 (UniProt Q9P2K2),inactive: -0.055,inactive: -0.086,inactive: -0.031,inactive: 0.149,,inactive: -0.024,inactive: 0.002,inactive: 0.155,inactive: -0.058,inactive: 0.054,,inactive: -0.028,inactive: 0.006,inactive: -0.038,inactive: 0.045,inactive: 0.061,inactive: -0.057,inactive: 0.013,inactive: 0.048,inactive: -0.005
TTC33 (UniProt Q6PID6),inactive: 0.065,inactive: -0.035,inactive: 0.001,inactive: 0.176,inactive: -0.107,inactive: -0.045,inactive: -0.038,,,inactive: 0.059,inactive: 0.058,inactive: -0.121,inactive: 0.009,inactive: -0.075,inactive: 0.139,inactive: 0.111,,inactive: 0.019,inactive: -0.023,

# 2 records picked at random from the list so far, as already listed:
Target,log2 fold change [1],log2 fold change [2],log2 fold change [3],log2 fold change [4],log2 fold change [5],log2 fold change [6],log2 fold change [7],log2 fold change [8],log2 fold change [9],log2 fold change [10],log2 fold change [11],log2 fold change [12],log2 fold change [13],log2 fold change [14],log2 fold change [15],log2 fold change [16],log2 fold change [17],log2 fold change [18],log2 fold change [19],log2 fold change [20]
UBAP1 isoform 4 (UniProt Q9NZ09),inactive: 0.001,inactive: 0.127,inactive: 0.049,inactive: 0.025,inactive: 0.027,inactive: -0.02,inactive: 0.024,inactive: 0.058,inactive: -0.093,inactive: -0.058,inactive: 0.07,inactive: -0.001,inactive: -0.024,inactive: -0.087,inactive: 0.107,inactive: 0.018,inactive: -0.112,inactive: 0.013,inactive: -0.044,
TSPAN31 (UniProt Q12999),inactive: -0.055,inactive: -0.095,inactive: 0.084,inactive: 0.04,,,inactive: -0.049,inactive: 0.03,inactive: 0.027,inactive: 0.023,,inactive: -0.047,,inactive: 0.364,,inactive: 0.047,inactive: -0.071,inactive: 0.11,inactive: 0.064,inactive: -0.022
